No constants are given. Whether binding was seen depends on the method and setting. Binding seen in cells or lysates may run through a third protein. Some entries that bind do so weakly or less than the wild type. Sequences can lack the tags named with a protein.
How the values were obtained:
Test in all cases: co-IP; HEK293T cells co-transfected with HA-ASB17 and a Flag-tagged partner; NP-40 lysis buffer (50 mM Tris-HCl pH 7.4, 150 mM NaCl, 1% NP-40, 1 mM EDTA, 5% glycerol); IP with anti-Flag (Figure 6A,B,E,G,I) or anti-HA (Figure 6C,D,F,H) at 4 C overnight, protein A/G-agarose, washes with 300 mM NaCl; immunoblot
[1] = target: Flag-MCL1 (myeloid cell leukemia-1) (UniProt Q07820)
[2] = target: Flag-BCL2 (UniProt P10415)
[3] = target: T1, Flag-BCLW (B-cell leukemia/lymphoma w) (UniProt Q92843)
T1 sequence: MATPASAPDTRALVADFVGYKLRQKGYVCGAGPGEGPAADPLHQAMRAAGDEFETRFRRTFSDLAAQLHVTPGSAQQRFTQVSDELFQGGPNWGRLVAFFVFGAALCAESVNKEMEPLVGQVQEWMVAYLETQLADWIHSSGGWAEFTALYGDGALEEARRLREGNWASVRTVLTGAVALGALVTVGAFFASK

Amino acid sequences for entries named in this document (tags omitted).
UniProt Q07820: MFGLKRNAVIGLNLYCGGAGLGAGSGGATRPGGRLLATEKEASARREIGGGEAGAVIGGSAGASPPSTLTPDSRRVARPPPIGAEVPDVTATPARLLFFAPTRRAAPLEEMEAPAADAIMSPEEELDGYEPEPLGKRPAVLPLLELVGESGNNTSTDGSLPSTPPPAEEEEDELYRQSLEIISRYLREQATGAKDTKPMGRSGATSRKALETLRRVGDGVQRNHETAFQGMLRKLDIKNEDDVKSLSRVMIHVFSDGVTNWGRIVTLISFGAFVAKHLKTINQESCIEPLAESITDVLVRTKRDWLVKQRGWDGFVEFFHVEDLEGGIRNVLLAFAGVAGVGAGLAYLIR
UniProt P10415: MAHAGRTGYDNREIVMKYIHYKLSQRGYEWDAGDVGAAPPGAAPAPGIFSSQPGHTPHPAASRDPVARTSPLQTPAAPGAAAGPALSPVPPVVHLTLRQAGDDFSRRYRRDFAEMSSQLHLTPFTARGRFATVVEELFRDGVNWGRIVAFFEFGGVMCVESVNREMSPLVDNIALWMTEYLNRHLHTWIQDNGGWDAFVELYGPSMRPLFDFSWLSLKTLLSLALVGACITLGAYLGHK
UniProt Q07817: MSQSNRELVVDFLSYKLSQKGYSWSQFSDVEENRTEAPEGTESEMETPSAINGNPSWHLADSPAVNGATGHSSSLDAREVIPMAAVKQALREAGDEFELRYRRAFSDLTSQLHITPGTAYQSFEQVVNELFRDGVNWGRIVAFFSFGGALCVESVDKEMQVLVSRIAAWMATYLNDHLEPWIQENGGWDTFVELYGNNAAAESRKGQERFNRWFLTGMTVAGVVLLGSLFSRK

[4] = target: Flag-BCLX (UniProt Q07817)
[5] = target: T2, Flag-ATG7 (UniProt O95352)
T2 sequence: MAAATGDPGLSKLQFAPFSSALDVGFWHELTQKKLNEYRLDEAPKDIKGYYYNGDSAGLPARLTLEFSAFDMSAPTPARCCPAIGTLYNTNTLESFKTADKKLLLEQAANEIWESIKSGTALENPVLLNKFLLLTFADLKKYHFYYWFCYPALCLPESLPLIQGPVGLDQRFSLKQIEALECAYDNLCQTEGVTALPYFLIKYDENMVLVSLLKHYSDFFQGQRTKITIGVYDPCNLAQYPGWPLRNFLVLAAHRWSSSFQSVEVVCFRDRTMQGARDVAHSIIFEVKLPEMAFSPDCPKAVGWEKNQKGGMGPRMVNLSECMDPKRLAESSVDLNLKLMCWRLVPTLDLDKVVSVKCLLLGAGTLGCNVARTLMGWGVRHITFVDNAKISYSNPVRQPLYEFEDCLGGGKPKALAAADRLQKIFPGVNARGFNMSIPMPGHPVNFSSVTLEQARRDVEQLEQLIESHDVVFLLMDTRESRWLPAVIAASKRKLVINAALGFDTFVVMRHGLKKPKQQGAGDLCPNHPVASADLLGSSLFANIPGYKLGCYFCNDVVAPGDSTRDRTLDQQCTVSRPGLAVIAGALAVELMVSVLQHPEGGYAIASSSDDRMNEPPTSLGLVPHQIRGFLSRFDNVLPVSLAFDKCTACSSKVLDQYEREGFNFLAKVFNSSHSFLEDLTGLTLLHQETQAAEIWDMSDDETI

Measured: binding

B1: HA-tagged ASB17 (ankyrin repeat and SOCS box protein 17) (protein, UniProt Q8WXJ9 1-295)
chain: MSKSTKLCGKTSCPRSNIFCNLLDKIVKRPSLQFLGQWGYHCYEPRIYRSLAKILRYVDLDGFDALLTDYIAFVEKSGYRFEVSFNLDFTEICVNTILYWVFARKGNPDFVELLLKKTKDYVQDRSCNLALIWRTFTPVYCPSPLSGITPLFYVAQTRQSNIFKILLQYGILEREKNPINIVLTIVLYPSRVRVMVDRELADIHEDAKTCLVLCSRVLSVISVKEIKTQLSLGRHPIISNWFDYIPSTRYKDPCELLHLCRLTIRNQLLTNNMLPDGIFSLLIPARLQNYLNLEI
binds: [1] | [2] | [3] | [4] | [5]
